Assay results published in PubChem BioAssay AID1671190 (National Center for Advancing Translational Sciences (NCATS), 2021).
Several values for one entry are separate records, joined by “and”; a condition that tells them apart may be missing. Equal values may be shown once. The whole screen tested about 580,000 compounds, of which about 6,100 (1.1%) were called active. Inconclusive means that the source gave no clear call. Such entries were picked first, then a sample of the others. The call rests on the fitted dose curve; in most records, active means well fitted inhibition curve with a large enough effect; inconclusive means small, poorly fitted or top-dose-only effect, or another doubt; inactive means no such curve, though single readings can be large or run the other way. A potency beside an inconclusive call is a rough fit, not a confirmed value.

The chains behind the UniProt entries cited, without tags or fusion partners.
UniProt P18054, whole entry, looked up: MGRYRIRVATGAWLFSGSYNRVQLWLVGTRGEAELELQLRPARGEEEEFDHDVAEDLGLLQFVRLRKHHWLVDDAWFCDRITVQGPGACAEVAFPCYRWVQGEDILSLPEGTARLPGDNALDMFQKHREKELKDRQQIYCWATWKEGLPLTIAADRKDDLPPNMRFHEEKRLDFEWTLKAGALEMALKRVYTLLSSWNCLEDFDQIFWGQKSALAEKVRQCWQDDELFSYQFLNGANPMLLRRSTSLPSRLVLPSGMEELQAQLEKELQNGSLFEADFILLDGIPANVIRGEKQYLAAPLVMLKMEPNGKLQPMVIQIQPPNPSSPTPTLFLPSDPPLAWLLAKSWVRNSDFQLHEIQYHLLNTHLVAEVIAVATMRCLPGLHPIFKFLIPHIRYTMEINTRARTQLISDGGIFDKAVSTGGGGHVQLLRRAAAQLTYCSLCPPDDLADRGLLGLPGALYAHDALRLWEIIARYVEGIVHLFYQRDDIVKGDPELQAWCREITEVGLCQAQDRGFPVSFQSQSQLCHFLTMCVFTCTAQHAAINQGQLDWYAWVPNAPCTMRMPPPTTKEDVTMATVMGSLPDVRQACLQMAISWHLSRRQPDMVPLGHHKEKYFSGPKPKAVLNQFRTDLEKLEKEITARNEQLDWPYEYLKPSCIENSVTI

The compounds below were run against Polyunsaturated fatty acid lipoxygenase ALOX12 (Homo sapiens) (UniProt P18054) (assay: Primary qHTS assay for inhibitors of human arachidonate 12S-lipoxygenase (ALOX12): Round 2). Conditions: purified 12hLO, xylenol orange hydroperoxide absorbance; activity change, negative = inhibition: at 108 µM (top of the series) unless noted.
Procedure, shortened: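 Purified human 12hLO at 150 nM in 25 mM Hepes, 0.01% Triton X-100, pH 7.0, preincubated 15 min at room temperature with compound. Reaction started with 40 uM arachidonic acid, 30 min at room temperature. Hydroperoxide measured by Fe-xylenol orange, 573/405 nm absorbance ratio.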
On the % scale 0 is the no-effect control and ±100 the full control effect; potency means the concentration at half of the fitted maximal effect.

Compound | Potency | activity change, negative = inhibition
CCOC(=O)c1c2c(c(=S)n(-c3ccccc3)c1N)CCC2 | inconclusive: 44.7 µM [inhibitor, partial curve, poor fit] | 
Cc1c(NC(=O)CSc2nc3ccccc3s2)c(=O)n(-c2ccccc2)n1C |  | inactive: 13.8%
Cc1nc(-c2ccccc2OC(F)(F)F)[nH]c(=O)c1Cl | inconclusive: 89.1 µM [inhibitor, partial curve, poor fit] | 
CC(=O)NC[C@H]1Cn2c(-c3ccc4c(c3)OCCO4)cnc2CO1 |  | inactive: 28.5% [at 176 µM]
O=C(C1=C[C@H](c2ccccc2)C[C@H](OCCCCO)O1)N1CCN(Cc2ccc3c(c2)OCO3)CC1 |  | inactive: -19.5%
COC(Cc1n[nH]c(=S)n1-c1ccc(Cl)cc1)OC |  | inconclusive: -44.1% [inhibitor]
CCN(CC)c1ccc(/C=C2\C(=O)N(c3nnc(C)c(=O)[nH]3)N=C2C)cc1 |  | inactive: -16.4%
COc1ccc(-c2cn[nH]c2-c2ccc(OCCN3CCCCC3)cc2O)cc1 |  | inactive: -17.7%
Cc1cnc(CNc2ncncc2-c2ccoc2)cn1 | inconclusive: 5.62 µM [inhibitor, full curve, poor fit] | 
COc1ccc(Cn2c(C3CCN(C(=O)Cc4ccc(C)cc4)CC3)n[nH]c2=O)cc1 | inconclusive: 89.1 µM [inhibitor, single point] | 
COC(=O)C(=O)CC(=O)c1ccc(Cl)s1 | inconclusive: 39.8 µM [inhibitor, partial curve, poor fit] | 
CCC1(c2ccccc2)NC(=O)N(CC(=O)NCc2ccc(OC)cc2)C1=O (stereo unspecified) | inconclusive: 126 µM [inhibitor, single point] | 
C=C(C)CSC1=C(C#N)C(c2ccccc2Cl)CC(=O)N1 (stereo unspecified) | active: 22.4 µM | 
CCC(=O)Nc1nnc(CCc2ccccc2)s1 |  | inactive: 17.3%
CN1CCN(C(c2ccccn2)c2cc(Cl)c3cccnc3c2O)CC1 (stereo unspecified) | inconclusive: 35.5 µM [inhibitor, partial curve, poor fit] | 
CC(C)(C)c1ccc(-c2c(C#N)c(N)nc3c2CCCC3)s1 |  | inactive: 0%
CCCCc1nnc(SCC(=O)Nc2nccs2)n1C | inconclusive: 35.5 µM [inhibitor, single point] | 
Cc1c(-n2cc(C(=O)c3cc(F)ccc3O)cc(C#N)c2=O)c(=O)n(-c2ccccc2)n1C | inconclusive: 112 µM [inhibitor, partial curve, poor fit] | 
Cc1ccc(S(=O)(=O)Nc2ccc(-c3cn4ccsc4n3)cc2)s1 |  | inconclusive: -39.3% [inhibitor]
CN1CCCC1(C)C(=O)NCc1ccc(F)cc1Cl (stereo unspecified) | inconclusive: 39.8 µM [inhibitor, partial curve, poor fit] | 
CCc1ccc2c(CN(CC)Cc3nc4ccccc4c(=O)[nH]3)cc(=O)oc2c1 | inconclusive: 39.8 µM [inhibitor, partial curve, poor fit] | 
CC1(C(=O)NS(=O)(=O)Cc2ccccc2C(F)(F)F)CCN1C(=O)c1ccco1 (stereo unspecified) | inconclusive: 100 µM [inhibitor, partial curve, poor fit] | 

Compound | Potency | activity change, negative = inhibition
COc1ccc(N=c2scc(-c3ccc(OC)cc3)n2CCO)cc1 | inconclusive: 50.1 µM [inhibitor, partial curve, poor fit] | 
Cc1ccc(C)c(N2CN(CCC3=CCCCC3)CNC2=S)c1 | inconclusive: 100 µM [inhibitor, partial curve, poor fit] | 
CCN1CCN(S(=O)(=O)c2ccc(Cl)c(C(=O)N(CC)CC(=O)Nc3ccc(OC)cc3)c2)CC1 | inconclusive: 44.7 µM [inhibitor, partial curve, poor fit] | 
O=C(NC(=S)NNC(=O)c1ccccc1[N+](=O)[O-])c1ccc(Br)cc1 | active: 3.55 µM | 
CCCCCCCC1=NN(c2ccc(S(=O)(=O)O)cc2)C(=O)C1N=O (stereo unspecified) | inconclusive: 44.7 µM [inhibitor, partial curve, poor fit] | 
O=C(CCc1ccccc1)NCc1nnc2ccc(-c3ccccc3)nn12 |  | inactive: 29%
N#CC1=C(N)OC2=C(C(=O)CCC2)C1CCc1ccccc1 (stereo unspecified) | inconclusive: 20 µM [inhibitor, full curve, poor fit] | 
COc1ccc(-c2ccc(CN3C(C(C)C)C(=O)N(Cc4cn(Cc5ccco5)nn4)CCS3(=O)=O)cc2)cc1 (stereo unspecified) | inconclusive: 39.8 µM [inhibitor, partial curve, poor fit] | 
COC(=O)[C@H]1[C@H]2C[C@H]3c4[nH]c5ccccc5c4CCN3C[C@@H]2CC[C@@H]1O | inconclusive: 28.2 µM [inhibitor, partial curve, poor fit] | 
Cc1nn(-c2ccc(C(C)C)cc2)c(C)c1[C@@H]1C=C[C@@H](NCc2cccc(Cl)c2)C1 | inconclusive: 63.1 µM [inhibitor, full curve, poor fit] | 
Cc1ccc(CS(=O)(=O)c2ncc(Cl)c(C(=O)Nc3nc4ccc(F)cc4s3)n2)cc1 | inconclusive: 3.98 µM [inhibitor, full curve, poor fit] | 
Cc1cccc(C(=O)Nc2nnc(S(=O)(=O)N(C)Cc3ccco3)s2)c1 | inactive and inconclusive: 44.7 µM [inhibitor, partial curve, poor fit] | 
CCCCN(C(=O)CSc1nnc(Nc2ccc(C)c(C)c2)s1)c1c(N)n(Cc2ccccc2)c(=O)[nH]c1=O |  | inactive: -12.5%
CCc1ccccc1NC(=O)CCn1ccn2nc3c(c2c1=O)CCCC3 |  | inactive: 36.9%
O=C(Cn1nc(C(F)F)cc1C(F)F)NNC(=S)Nc1ccc([N+](=O)[O-])cc1 | inconclusive: 44.7 µM [inhibitor, partial curve, poor fit] | 
CCN(C(=O)c1cn(C)c(=O)c2cc(OC)c(OC)cc12)c1ccccc1C |  | inactive: -6.82%
CC1(NC(=O)CSc2nnc(-c3ccco3)n2Cc2ccccc2)CCS(=O)(=O)C1 (stereo unspecified) | inconclusive: 112 µM [inhibitor, single point] | 
O=C(NNc1cccc(Cl)n1)c1c(Cl)cccc1Cl |  | inactive: -15.3%
Cc1nn(-c2ccccc2)c2sc(C(=O)Nc3ccccc3Br)cc12 |  | inconclusive: -30.2% [inhibitor]
Cc1ccc(NC(=O)CN2C(=O)C3(SCC(=O)N3c3cccc(Cl)c3)c3ccccc32)cc1C (stereo unspecified) |  | inactive: 0.587%
CCCN1C[C@H](CSC)C[C@@H]2c3cccc4[nH]cc(c34)C[C@H]21 | inconclusive: 8.91 µM [inhibitor, full curve, poor fit] | 
COc1ccc(-c2c(-c3cc(OC)cc(OC)c3)n(C)c3ccc(-c4ccc5cc[nH]c5c4)cc23)cc1 | inconclusive: 100 µM [inhibitor, single point] | 

Compound | Potency | activity change, negative = inhibition
CCCCNC(=O)C(NC(=O)c1cccc(C(F)(F)F)c1)C(=O)c1ccccc1 (stereo unspecified) | inconclusive: 50.1 µM [inhibitor, partial curve, poor fit] | 
Nc1c(C(=O)Nc2ccc(C(=O)O)cc2)sc2nc3c(cc12)CCCC3 | active: 17.8 µM | 
COc1cccc(CN(C)C(=O)C2CCCN(C(=O)c3ccc(Cl)cc3)C2)c1 (stereo unspecified) |  | inactive: 13.6%
CC(C)NCCOCCSc1ccc(Cl)cc1 | inconclusive: 0.282 µM [inhibitor, full curve, poor fit] | 
O=C(NCc1cccnc1)Nc1ccc(Cl)cc1Cl | inconclusive: 50.1 µM [inhibitor, partial curve, poor fit] | 
Cc1cc(SCC(=O)NCCC2=CCCCC2)nc2ccccc12 | inconclusive: 56.2 µM [inhibitor, partial curve, poor fit] | 
O=C(NCCc1ccccn1)c1ccc(Cl)cc1 | inconclusive: 39.8 µM [inhibitor, single point] | 
Cc1nc2sc3c(c2c(-c2ccccc2)c1C(N)=O)CCCC3 | inconclusive: 44.7 µM [inhibitor, partial curve, poor fit] | 
O=C1Nc2cc(Cl)ccc2C(=O)N2CCN(C(=O)c3ccccc3)C[C@H]12 |  | inactive: 9.97% [at 176 µM]
O=[N+]([O-])/C=C/c1cn(Cc2ccc(Cl)cc2)c2ccccc12 | inconclusive: 0.447 µM [inhibitor, full curve, poor fit] | 
O=C(Cn1nc(CNc2ccc(Cl)cc2)[n+]2c1CCCCC2)c1ccc(Cl)cc1 | inconclusive: 89.1 µM [inhibitor, single point] | 
Cc1ccc(S(=O)(=O)N2CCCCC2C(=O)N2CCCCCC2)cc1 (stereo unspecified) | inconclusive: 44.7 µM [inhibitor, partial curve, poor fit] | 
O=C1OC2(c3ccccc31)c1cc(I)c(O)c(I)c1Oc1c2cc(I)c(O)c1I | active: 1.61 µM | 
CC1(C(=O)NCc2cccc(F)c2)CCCCC(=O)N1 (stereo unspecified) | inconclusive: 70.8 µM [inhibitor, partial curve] | 
CCN(C1CCOCC1)C1CN(C(=O)C(C)C)C1 |  | inactive: -7.57%
O=C1[C@H](Cc2ccccc2)NCC=CC[C@@H](c2ccc(Cl)cc2)N1Cc1ccc(Cl)cc1 | inconclusive: 50.1 µM [inhibitor, single point] | 
O=C(COC(=O)c1cccc(Br)c1)NCc1ccco1 | inconclusive: 44.7 µM [inhibitor, partial curve, poor fit] | 
CC(=O)Nc1ccc(-c2c(-c3ccc4c(c3)OCO4)nn(-c3cc(C)ccc3C)c2OC(C)=O)cc1 | inconclusive: 8.91 µM [inhibitor, full curve, poor fit] | 
Cc1cc(C)nc(SCc2nc3ccc(Cl)cn3c2Br)n1 | inconclusive: 28.2 µM [inhibitor, partial curve] | 
CSc1cccc(N2CC(C(=O)O)CC2=O)c1 (stereo unspecified) |  | inactive: -27.6%
COc1ccc(CCNC(=O)c2ccc(Cl)cc2)cc1OC |  | inactive: 0%
COc1ccc(/C=C/C(=O)c2ccc(C)cc2)cc1OC | inconclusive: 0.251 µM [inhibitor, full curve, poor fit] | 

Full records, quoted from the list.
`COc1ccc(/C=C/C(=O)c2ccc(C)cc2)cc1OC` reads Potency: inconclusive: 0.251 µM [inhibitor, full curve, poor fit]
`O=C1OC2(c3ccccc31)c1cc(I)c(O)c(I)c1Oc1c2cc(I)c(O)c1I` reads Potency: active: 1.61 µM

3 compounds already listed, ordered by length of the SMILES, descending:
Compound | Potency | activity change, negative = inhibition
Cc1nn(-c2ccccc2)c2sc(C(=O)Nc3ccccc3Br)cc12 |  | inconclusive: -30.2% [inhibitor]
COC(Cc1n[nH]c(=S)n1-c1ccc(Cl)cc1)OC |  | inconclusive: -44.1% [inhibitor]
COc1ccc(CCNC(=O)c2ccc(Cl)cc2)cc1OC |  | inactive: 0%
